Here are results for one molecule from patent US20120321641A1 (TORAY INDUSTRIES, published 2012).

This assay concerns the target dog CAPRIN-1 in dog breast cancer tissue (dog). Kind of assay: immunohistochemical staining of frozen dog breast cancer sections.

These are yes or no findings as the source states them, for the method shown. Some binding calls cover weakened binding; strength is not graded here.

B1: monoclonal antibody #1 prepared in Example 4 (antibody, V domains shown)
VH: AVTLDESGGGLQTPGGGLSLVCKASGFTFSSFDMGWVRQAPGKGLEFVAQINDAGSRTWYATAVKGRATISRDNGQTTVRLQLNNLRAEDTGTYYCTRGSGYVGAGAIDAWGHGTEVIVS
VL: AALTQPSSVSANPGETVKITCSGGSGYYGWYQQQKSPGSAPVTVIYQNDKRPSDIPSRFSGSGSGSTNTLTITGVQAEDEAVYFCGRYDSTDSGIFGAGTTLTVL
notes: also called anti-CAPRIN-1 monoclonal antibody
As to B1, the binding entry is listed as “binds”.
